Experimental data from PubChem BioAssay AID1487 (National Center for Advancing Translational Sciences (NCATS), 2009).
Some of the results follow. The main result of the screen is listed elsewhere. These columns were measured beside it and carry no call. Compounds called inactive in the main read-out are mostly missing here. Potencies come from curve fits of mixed quality, noted in brackets.

Assay: qHTS Assay for Modulators of Lamin A Splicing
Settings: HeLa LMNA splicing GFP/RFP minigene ratio, 48 h
Summary of the method: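 S3 HeLa cells stably expressing lamin A-EGFP splicing minigene plus DsRed2, 600 cells/well, 48 h compound exposure at 37C. Laser-scanning cytometry; analysed as GFP (500-530 nm)/RFP (575-640 nm) total intensity ratio; 0.5% DMSO vehicle.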

[1] = measured here: GFP splicing reporter channel
[2] = measured here: RFP viability control channel

Structure (SMILES) | AC50 [1] | AC50 [2]
CN(Cc1ccccc1)C(=O)c1nc2ccccn2c1CN1CCCC1c1nccs1 (stereo not given) | 0.447 µM [falling, full curve, poor fit] | –
FC(F)(F)c1ccccc1-c1nccc(-n2ccnc2)n1 | – | 0.126 µM [falling, full curve, poor fit]
CCc1ccccc1NC(=O)N1CCOc2ccccc21 | 0.00316 µM [falling, full curve] | –
O=C(NCc1ccncc1)C(=O)NCC(c1ccco1)N1CCN(c2ccc(F)cc2)CC1 (stereo not given) | – | 25.1 µM [rising, single point]
CN(C)S(=O)(=O)c1ccc(NCC2COc3ccccc3O2)c([N+](=O)[O-])c1 (stereo not given) | – | 17.8 µM [rising, partial curve, poor fit]
CCCOc1ccc(C2C(=O)N(C3CCCCCC3)CC(=O)N2Cc2ccccc2OC)cc1OC (stereo not given) | 35.5 µM [rising, single point] | –
COc1cc(NC(=O)CC2C(=O)N(c3ccccc3)C(=O)N2Cc2ccc(F)cc2)cc(OC)c1 (stereo not given) | – | 0.0224 µM [falling, full curve, poor fit]
Cc1cccc(CNc2ccnc(-c3ccc(C(=O)N(C)C)cc3)n2)c1 | 12.6 µM [falling, partial curve] | –
COc1ccc(C(=O)C2CCCN(Cc3ccc4nonc4c3)C2)cc1OC (stereo not given) | 0.0224 µM [falling, full curve, poor fit] | 0.02 µM [falling, full curve]
Cc1ccc(S(=O)(=O)Nc2ccccc2C(=O)Nc2nc(-c3ccc(F)cc3)cs2)cc1 | – | 0.562 µM [rising, partial curve]
COc1ccc(OC)c(NC(=O)Cn2cc(C#N)c3ccccc32)c1 | 35.5 µM [falling, single point] | –
COc1ccc(OCc2nc(C#N)c(N3CCN(c4ccc(OC)cc4)CC3)o2)cc1 | – | 22.4 µM [rising, single point]
O=C(Nc1cccc(S(=O)(=O)N2CCCCC2)c1)c1ccc2c(=O)n3c(nc2c1)CCCCC3 | 17.8 µM [rising, single point] | 11.2 µM [rising, partial curve]
COc1ccc(C(=O)/C=C/c2ccc(C)cc2)c(OC(=O)c2ccc([N+](=O)[O-])cc2)c1 | – | 4.47 µM [rising, full curve]
CC(C)c1nnc(NC(=O)c2c(O)c3cccc4c3n(c2=O)CCC4)s1 | – | 5.62 µM [rising, partial curve, poor fit]
CC(C)(C)C(=O)Nc1sc2c(c1C(=O)Nc1ccccn1)CCCC2 | – | 0.0562 µM [falling, full curve, poor fit]
CCCC(=O)Nc1ccc(N2CCN(C(=O)CCC)CC2)cc1 | 0.251 µM [falling, partial curve, poor fit] | –
COCCn1c(=O)c(-c2ccc(Cl)cc2)nc2cnc(Nc3ccccc3)nc21 | 12.6 µM [falling, partial curve] | 15.8 µM [falling, partial curve]

Structure (SMILES) | AC50 [1] | AC50 [2]
CC[n+]1c(/C=C(/C)SC)sc2ccccc21 | – | 35.5 µM [rising, single point]
O=C(Nc1ccccc1-c1nnc(SCc2ccc(Cl)cc2Cl)o1)c1ccccc1 | – | 35.5 µM [rising, single point]
COc1ccc(CCC(=O)NCCc2csc(-c3ccc(F)cc3)n2)cc1 | 1.78 µM [falling, full curve] | 1.12 µM [falling, full curve, poor fit]
CCCCN(CCCC)S(=O)(=O)c1ccc(C(=O)Nc2nnc(CSC)o2)cc1 | 5.01 µM [falling, partial curve] | 17.8 µM [falling, partial curve]
CC(C)(C#CCN1CCCCC1)OCCOC(c1ccccc1)c1ccccc1 | – | 12.6 µM [rising, partial curve]
CCCCN1CNC(=S)N(c2ccccc2OCC)C1 | – | 2.51 µM [rising, partial curve, poor fit]
Cc1ccc(-n2c(-c3cnccn3)n[nH]c2=S)cc1 | 8.91 µM [rising, partial curve, poor fit] | –
Cn1nnnc1SCC(=O)N(C1CCCCC1)C1CCCCC1 | 22.4 µM [rising, single point] | 12.6 µM [rising, single point]
O=C(CSCc1ccc(F)cc1)N1CCN(c2ccccc2F)CC1 | 35.5 µM [falling, partial curve, poor fit] | 50.1 µM [falling, partial curve, poor fit]
Cn1cccc1Cc1nnc(SCC(=O)Nc2ccc3c(c2)OCCO3)n1-c1ccc(F)cc1 | – | 35.5 µM [rising, single point]
CC1(C)O[C@H]2C[C@@H]3[C@H]4CCC5=CC(=O)C=C[C@]5(C)[C@@]4(F)[C@@H](O)C[C@]3(C)[C@]2(C(=O)CO)O1 | – | 0.0501 µM [falling, full curve, poor fit]
CCOC(=O)c1cc(C)sc1/N=C/C1=C(O)CCCC1=O | – | 3.98 µM [rising, single point]
COc1ccc(C(=O)NC(=S)Nc2ccccc2N2CCOCC2)cc1Br | 12.6 µM [rising, single point] | 28.2 µM [rising, single point]
CCn1cc(C(=O)NCc2ccc3c(c2)OCO3)c(=O)c2cc(F)c(N3CCN(C)CC3)cc21 | – | 15.8 µM [rising, single point]
Cc1nn(Cc2ccc(Cl)cc2Cl)c(C)c1NC(=O)CCl | – | 35.5 µM [falling, single point]
CCCn1c(SCC(=O)N2CCN(c3ccc(OC)cc3)CC2)nc2c1c(=O)n(C)c(=O)n2C | 1.58 µM [rising, partial curve, poor fit] | 11.2 µM [rising, partial curve, poor fit]
COc1ccc(CCNC(=O)COc2ncnc3ccccc23)cc1OC | 5.62 µM [falling, partial curve] | 0.01 µM [falling, full curve, poor fit]

Filtered by structure: the entries above with two or more sulfur atoms.
Structure (SMILES) | AC50 [1] | AC50 [2]
Cc1ccc(S(=O)(=O)Nc2ccccc2C(=O)Nc2nc(-c3ccc(F)cc3)cs2)cc1 | – | 0.562 µM [rising, partial curve]
CC[n+]1c(/C=C(/C)SC)sc2ccccc21 | – | 35.5 µM [rising, single point]
CCCCN(CCCC)S(=O)(=O)c1ccc(C(=O)Nc2nnc(CSC)o2)cc1 | 5.01 µM [falling, partial curve] | 17.8 µM [falling, partial curve]
